According to the supplement of paper PMC6411743:
± gives the standard deviation of the averaged measurements. This is a selection; strong and weak results do not stand in their true shares. Most entries show no effect beyond the scatter of the controls.

Chains of the proteins cited; added tags and fusions are not shown. Lines headed by an entry give the natural chain unless they say otherwise; changes in a name come on top.
UniProt Q92542, whole entry: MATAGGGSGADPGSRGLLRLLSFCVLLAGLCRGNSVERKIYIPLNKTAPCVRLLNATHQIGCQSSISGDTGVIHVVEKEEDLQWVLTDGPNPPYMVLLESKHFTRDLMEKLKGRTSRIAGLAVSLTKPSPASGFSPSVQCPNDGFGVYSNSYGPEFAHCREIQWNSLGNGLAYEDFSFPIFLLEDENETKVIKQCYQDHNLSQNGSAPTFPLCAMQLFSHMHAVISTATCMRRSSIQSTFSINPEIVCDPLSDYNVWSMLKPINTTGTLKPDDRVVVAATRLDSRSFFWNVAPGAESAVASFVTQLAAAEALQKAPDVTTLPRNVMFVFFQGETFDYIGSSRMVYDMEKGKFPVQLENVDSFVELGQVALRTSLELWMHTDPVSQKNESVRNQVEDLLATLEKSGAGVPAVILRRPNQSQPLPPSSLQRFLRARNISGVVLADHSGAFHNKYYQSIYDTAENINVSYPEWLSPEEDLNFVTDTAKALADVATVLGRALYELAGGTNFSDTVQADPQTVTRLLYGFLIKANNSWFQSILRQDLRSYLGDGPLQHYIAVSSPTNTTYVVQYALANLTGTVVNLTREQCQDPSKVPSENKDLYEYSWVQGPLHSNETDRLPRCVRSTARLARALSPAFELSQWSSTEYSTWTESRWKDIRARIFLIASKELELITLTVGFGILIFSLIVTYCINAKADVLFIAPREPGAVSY
UniProt Q8TEA1: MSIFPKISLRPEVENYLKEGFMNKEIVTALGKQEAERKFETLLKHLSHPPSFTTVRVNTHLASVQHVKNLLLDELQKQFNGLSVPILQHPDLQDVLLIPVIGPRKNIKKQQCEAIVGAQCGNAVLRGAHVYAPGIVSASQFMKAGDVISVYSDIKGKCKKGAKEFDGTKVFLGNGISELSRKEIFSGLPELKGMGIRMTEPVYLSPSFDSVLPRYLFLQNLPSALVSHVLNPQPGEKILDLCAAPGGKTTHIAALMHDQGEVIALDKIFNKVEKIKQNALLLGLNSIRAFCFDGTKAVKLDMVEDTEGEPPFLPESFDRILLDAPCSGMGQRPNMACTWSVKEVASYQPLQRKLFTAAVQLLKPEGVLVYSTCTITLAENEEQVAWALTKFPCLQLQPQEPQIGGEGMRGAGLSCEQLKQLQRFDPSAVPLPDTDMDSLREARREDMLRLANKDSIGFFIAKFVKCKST
UniProt Q92905, whole entry, looked up: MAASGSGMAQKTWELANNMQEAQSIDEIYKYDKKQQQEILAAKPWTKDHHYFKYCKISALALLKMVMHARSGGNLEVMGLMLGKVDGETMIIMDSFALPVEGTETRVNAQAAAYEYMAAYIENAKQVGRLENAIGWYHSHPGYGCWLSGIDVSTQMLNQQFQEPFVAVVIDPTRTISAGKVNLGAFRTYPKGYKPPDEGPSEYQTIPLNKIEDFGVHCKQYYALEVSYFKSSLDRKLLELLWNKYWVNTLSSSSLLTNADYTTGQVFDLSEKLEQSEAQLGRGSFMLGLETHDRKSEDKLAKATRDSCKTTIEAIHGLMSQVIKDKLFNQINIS
UniProt Q8WYQ5: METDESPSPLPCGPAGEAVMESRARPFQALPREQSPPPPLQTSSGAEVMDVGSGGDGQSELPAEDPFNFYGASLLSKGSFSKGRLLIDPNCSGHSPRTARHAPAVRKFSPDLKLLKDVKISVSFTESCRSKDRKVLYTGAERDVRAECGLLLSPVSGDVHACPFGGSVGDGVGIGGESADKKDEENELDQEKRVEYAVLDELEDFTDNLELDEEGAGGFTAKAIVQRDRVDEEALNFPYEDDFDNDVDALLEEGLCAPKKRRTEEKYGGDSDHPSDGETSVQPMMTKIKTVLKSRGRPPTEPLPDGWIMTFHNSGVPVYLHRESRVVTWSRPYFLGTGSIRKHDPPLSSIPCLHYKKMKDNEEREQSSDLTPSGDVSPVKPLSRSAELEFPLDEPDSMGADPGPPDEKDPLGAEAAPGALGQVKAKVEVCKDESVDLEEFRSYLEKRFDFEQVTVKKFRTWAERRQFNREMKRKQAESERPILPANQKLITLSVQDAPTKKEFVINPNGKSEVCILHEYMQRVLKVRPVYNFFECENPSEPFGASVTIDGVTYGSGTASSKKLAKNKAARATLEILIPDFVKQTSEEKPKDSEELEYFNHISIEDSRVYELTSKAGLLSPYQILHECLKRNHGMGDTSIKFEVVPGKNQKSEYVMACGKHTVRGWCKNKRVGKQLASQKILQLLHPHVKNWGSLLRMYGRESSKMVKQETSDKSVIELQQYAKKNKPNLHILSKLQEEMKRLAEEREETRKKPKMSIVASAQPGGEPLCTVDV
UniProt Q8WU10: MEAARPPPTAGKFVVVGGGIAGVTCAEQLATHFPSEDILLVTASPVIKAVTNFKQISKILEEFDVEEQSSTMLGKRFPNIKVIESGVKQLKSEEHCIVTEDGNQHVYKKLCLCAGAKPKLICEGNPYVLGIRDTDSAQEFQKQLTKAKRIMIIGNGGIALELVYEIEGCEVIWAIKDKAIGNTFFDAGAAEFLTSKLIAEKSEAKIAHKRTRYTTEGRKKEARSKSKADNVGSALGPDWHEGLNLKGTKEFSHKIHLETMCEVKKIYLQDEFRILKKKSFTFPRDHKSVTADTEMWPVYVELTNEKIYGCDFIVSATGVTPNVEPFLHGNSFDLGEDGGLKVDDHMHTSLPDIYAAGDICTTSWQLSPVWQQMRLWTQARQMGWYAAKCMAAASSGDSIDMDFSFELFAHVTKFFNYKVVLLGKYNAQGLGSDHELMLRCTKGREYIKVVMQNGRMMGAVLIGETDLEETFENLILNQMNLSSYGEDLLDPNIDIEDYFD
UniProt Q8WUW1: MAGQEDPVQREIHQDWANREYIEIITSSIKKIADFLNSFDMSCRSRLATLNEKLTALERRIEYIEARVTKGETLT
UniProt Q8TCA0: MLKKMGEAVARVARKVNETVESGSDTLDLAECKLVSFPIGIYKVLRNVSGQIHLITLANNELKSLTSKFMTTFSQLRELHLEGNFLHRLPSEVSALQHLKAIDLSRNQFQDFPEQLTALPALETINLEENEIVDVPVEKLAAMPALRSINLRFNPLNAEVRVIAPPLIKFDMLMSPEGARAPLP
UniProt Q969T7: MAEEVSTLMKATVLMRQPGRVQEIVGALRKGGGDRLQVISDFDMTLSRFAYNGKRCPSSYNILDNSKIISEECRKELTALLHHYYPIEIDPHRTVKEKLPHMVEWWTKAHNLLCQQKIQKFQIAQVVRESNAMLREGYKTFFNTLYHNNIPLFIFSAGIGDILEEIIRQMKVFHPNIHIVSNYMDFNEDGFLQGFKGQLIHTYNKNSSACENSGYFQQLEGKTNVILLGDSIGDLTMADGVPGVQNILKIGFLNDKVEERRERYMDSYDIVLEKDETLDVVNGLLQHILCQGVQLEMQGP
UniProt Q8WUA4: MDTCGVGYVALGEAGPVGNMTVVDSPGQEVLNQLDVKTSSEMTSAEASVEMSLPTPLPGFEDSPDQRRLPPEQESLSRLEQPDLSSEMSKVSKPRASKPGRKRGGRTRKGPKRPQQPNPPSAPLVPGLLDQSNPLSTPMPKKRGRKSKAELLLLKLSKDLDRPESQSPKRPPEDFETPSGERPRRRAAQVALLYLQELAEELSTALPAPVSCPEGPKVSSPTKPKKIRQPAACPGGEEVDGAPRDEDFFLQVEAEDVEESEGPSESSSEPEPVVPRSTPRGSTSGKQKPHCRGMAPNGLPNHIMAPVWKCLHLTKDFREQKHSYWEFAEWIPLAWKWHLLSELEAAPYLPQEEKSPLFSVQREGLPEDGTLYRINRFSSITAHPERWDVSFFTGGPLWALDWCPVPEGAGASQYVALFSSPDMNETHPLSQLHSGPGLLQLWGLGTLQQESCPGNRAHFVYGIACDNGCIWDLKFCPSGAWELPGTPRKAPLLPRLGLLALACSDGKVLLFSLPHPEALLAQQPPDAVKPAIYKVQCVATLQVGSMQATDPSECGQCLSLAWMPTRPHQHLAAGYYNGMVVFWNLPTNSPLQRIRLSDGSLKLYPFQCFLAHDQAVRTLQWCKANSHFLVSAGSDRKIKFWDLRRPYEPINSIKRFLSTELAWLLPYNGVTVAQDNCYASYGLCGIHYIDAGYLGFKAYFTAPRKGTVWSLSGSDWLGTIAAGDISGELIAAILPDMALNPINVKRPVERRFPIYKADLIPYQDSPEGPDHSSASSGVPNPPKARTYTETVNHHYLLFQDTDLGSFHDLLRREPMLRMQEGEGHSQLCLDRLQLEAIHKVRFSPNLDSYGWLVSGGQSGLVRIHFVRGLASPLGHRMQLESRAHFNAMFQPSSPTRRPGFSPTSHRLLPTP
UniProt Q93074, whole entry: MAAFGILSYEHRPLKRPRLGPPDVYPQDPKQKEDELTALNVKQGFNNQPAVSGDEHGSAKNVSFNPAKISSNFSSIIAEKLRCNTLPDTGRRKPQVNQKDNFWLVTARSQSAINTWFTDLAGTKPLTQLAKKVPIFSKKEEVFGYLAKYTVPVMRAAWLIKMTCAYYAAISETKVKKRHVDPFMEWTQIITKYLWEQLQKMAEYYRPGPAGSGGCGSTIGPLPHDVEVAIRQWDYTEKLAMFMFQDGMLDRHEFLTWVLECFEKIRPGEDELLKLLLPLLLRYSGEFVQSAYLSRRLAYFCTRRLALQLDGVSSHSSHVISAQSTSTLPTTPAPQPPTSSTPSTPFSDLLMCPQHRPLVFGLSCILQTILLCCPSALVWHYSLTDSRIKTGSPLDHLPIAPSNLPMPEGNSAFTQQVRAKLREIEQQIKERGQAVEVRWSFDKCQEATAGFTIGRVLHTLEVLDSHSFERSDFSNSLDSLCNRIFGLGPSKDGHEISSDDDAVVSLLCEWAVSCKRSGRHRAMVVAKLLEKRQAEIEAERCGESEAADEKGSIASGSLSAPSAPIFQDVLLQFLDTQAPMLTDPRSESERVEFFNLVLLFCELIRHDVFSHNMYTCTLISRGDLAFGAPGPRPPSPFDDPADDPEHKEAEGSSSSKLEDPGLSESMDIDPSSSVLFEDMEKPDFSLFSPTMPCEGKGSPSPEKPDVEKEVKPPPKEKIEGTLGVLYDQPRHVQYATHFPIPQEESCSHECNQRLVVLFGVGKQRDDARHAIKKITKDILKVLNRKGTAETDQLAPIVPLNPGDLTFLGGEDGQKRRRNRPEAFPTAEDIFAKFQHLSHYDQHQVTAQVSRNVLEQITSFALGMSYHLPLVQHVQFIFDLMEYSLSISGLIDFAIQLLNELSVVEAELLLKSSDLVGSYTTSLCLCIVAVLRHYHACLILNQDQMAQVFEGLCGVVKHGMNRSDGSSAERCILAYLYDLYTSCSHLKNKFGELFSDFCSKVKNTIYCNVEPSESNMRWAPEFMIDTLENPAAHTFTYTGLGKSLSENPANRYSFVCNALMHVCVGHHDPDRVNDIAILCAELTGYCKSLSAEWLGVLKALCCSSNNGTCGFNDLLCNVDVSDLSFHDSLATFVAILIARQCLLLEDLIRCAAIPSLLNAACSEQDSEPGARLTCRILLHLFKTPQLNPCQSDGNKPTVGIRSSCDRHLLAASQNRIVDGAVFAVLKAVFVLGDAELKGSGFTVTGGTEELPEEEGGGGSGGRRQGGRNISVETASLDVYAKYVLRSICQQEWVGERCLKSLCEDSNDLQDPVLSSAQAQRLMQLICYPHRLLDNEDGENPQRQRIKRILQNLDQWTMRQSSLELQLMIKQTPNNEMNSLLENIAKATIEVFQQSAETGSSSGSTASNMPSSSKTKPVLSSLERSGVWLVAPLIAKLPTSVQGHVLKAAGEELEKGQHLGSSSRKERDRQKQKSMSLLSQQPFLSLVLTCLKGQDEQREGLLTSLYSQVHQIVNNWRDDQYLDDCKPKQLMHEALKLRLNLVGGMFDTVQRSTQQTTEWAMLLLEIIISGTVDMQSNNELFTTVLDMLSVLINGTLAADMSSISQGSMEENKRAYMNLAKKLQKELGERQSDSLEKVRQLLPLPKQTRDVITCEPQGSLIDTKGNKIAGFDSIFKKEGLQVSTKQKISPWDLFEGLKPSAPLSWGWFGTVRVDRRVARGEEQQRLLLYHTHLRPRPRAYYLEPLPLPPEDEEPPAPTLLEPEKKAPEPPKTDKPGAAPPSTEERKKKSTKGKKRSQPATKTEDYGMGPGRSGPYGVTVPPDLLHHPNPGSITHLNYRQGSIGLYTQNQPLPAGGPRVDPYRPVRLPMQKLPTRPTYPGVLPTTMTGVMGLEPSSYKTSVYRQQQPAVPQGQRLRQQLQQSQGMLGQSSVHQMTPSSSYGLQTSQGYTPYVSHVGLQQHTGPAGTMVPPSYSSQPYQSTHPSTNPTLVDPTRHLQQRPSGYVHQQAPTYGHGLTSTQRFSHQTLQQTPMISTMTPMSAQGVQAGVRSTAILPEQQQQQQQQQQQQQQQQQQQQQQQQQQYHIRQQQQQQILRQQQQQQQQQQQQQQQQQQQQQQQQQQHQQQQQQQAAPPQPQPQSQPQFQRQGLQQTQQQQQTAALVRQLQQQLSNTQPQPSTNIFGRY

Compound: Nc1ncnc2c1ncn2[C@@H]1O[C@H](COP(=O)(O)OP(=O)(O)OP(=O)(O)O)[C@@H](O)[C@H]1O [adenosine triphosphate]
Experiment: NP40-soluble protein abundance relative to vehicle (solubility fold change) (ratio); higher = more soluble protein in presence of ATP
Conditions: concentration: 0.1mM
Summary of the method: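 Data come from three independent experiments in which Dounce-homogenised Jurkat crude lysate was treated at eight concentrations from 0.1 to 10 mM. Treatment ran 10 min at room temperature and then 3 min at 37 °C, after which 0.8% NP40 and benzonase were added for 60 min at 4 °C before ultracentrifugation. The supernatant underwent TMT labelling and LC-MS/MS, and vsn-normalised intensities were expressed as fold change against the detergent-processed vehicle in each replicate.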

Target	NP40-soluble protein abundance
MRPL24 (UniProt Q96A35)	0.98 ± 0.096
UniProt Q92542 and related entries	0.947 ± 0.028
NSUN6 (UniProt Q8TEA1)	1.04 ± 0.051
RNF25 (UniProt Q96BH1)	1.02 ± 0.058
CUL5 (UniProt Q93034)	1.06 ± 0.077
DPF2 (UniProt Q92785)	0.982 ± 0.045
DHX38 (UniProt Q92620)	1.016 ± 0.0024
COPS5 (UniProt Q92905)	0.994 ± 0.057
NUP133 (UniProt Q8WUM0)	1.06 ± 0.067
UniProt Q8WVT3	0.979 ± 0.023

Same assay, conditions: concentration: 0.5mM

Target	NP40-soluble protein abundance
UniProt Q92845 and related entries	1.1 ± 0.13
UniProt Q8TF05 and related entries	1.02 ± 0.065
GPT2 (UniProt Q8TD30)	1 ± 0.11
UniProt Q8WYQ5 and related entries	1.15 ± 0.12
SYAP1 (UniProt Q96A49)	0.983 ± 0.022
UniProt Q8WWC4	1.07 ± 0.055
UniProt Q92738 and related entries	1.02 ± 0.013
PYROXD1 (UniProt Q8WU10)	1.07 ± 0.079
UniProt Q8TBB5 and related entries	1.05 ± 0.064
UniProt Q8WUW1 and related entries	0.953 ± 0.21
PLEKHO2 (UniProt Q8TD55)	0.953 ± 0.036
EXOSC8 (UniProt Q96B26)	1.05 ± 0.038
UniProt Q8TCA0 and related entries	0.883 ± 0.057
FAM172A (UniProt Q8WUF8)	1.07 ± 0.073
UniProt Q8WUI4 and related entries	1.05 ± 0.073
NT5C3B (UniProt Q969T7)	1.05 ± 0.055
UniProt Q8WWW0-2	0.952 ± 0.056
UniProt Q96AQ8	0.949 ± 0.082
COG1 (UniProt Q8WTW3)	0.951 ± 0.058

Target	NP40-soluble protein abundance
FIG4 (UniProt Q92562)	1.03 ± 0.026
GTF3C2 (UniProt Q8WUA4)	1.01 ± 0.069
RABGGTA (UniProt Q92696)	1.03 ± 0.076
ALG3 (UniProt Q92685)	1.02 ± 0.075
ARPC1A (UniProt Q92747)	1.01 ± 0.038
ERGIC1 (UniProt Q969X5)	1.08 ± 0.07
UniProt Q93074 and related entries	1.03 ± 0.041
EMG1 (UniProt Q92979)	1.07 ± 0.026
MRPL24 (UniProt Q96A35)	0.994 ± 0.092
UniProt Q92542 and related entries	0.902 ± 0.083
NSUN6 (UniProt Q8TEA1)	1.04 ± 0.056
RNF25 (UniProt Q96BH1)	0.996 ± 0.035
CUL5 (UniProt Q93034)	1.05 ± 0.062
DPF2 (UniProt Q92785)	1.02 ± 0.077
DHX38 (UniProt Q92620)	1.1 ± 0.052
COPS5 (UniProt Q92905)	1 ± 0.023
NUP133 (UniProt Q8WUM0)	1.09 ± 0.069
UniProt Q8WVT3	0.94 ± 0.029
